Data published in patent publication US9456589B2, “Elasmobranch-repelling compounds and methods of use” (priority 2005, dated 2016).
Entries after “also recorded” stand apart in the source; their conditions may differ. At least one structure is not confirmed: it was looked up by name or label, or the drawing left a doubt.

Assays:
lemon sharks = assay: Tonic immobility, Syringe Assay; assay type: in vivo, N. brevirostris
Experimental: One bioassay used to observe and measure flight response is the tonic immobility test. Tonic immobility is a state of paralysis that typically occurs when a shark is subject to inversion of its body along the longitudinal axis. This state is called “tonic,” and the shark can remain in this state for up to 15 minutes thereby allowing researchers to observe effects of chemical repellents. The “tonic” state of the shark is first established by releasing seawater in proximity to the “tonic” shark with the same delivery instrument and at the same distance as a “test” repellent compound will be released. Some controls are released with a high flow rate (30 mL/sec) in order to establish that sharks are not awakened by a jet of fluid over their noses. Once behavioral controls are established, a compound or composition that may have a repelling effect is delivered to the shark. […] Using this tonic immobility bioassay researches can quantify the strength of a repellent effect.
A second delivery method called the “Syringe Assay” method delivered a dose of 60 mL or more of a test chemical repellent from at least one foot, and up to as many as five feet, from a shark. The distance of delivery was determined based on the strength of the water current in the direction of the shark. Time from delivery of the test substance until response was observed, measured and recorded. […]

[1] = system: sharks (lemon, nurse, tiger pooled); assay: Tonic immobility, Hd Syringe Assay, summary over species; assay type: in vivo; conditions: listed as trans-pentenal
Experimental: (§1) One bioassay used to observe and measure flight response is the tonic immobility test. Tonic immobility is a state of paralysis that typically occurs when a shark is subject to inversion of its body along the longitudinal axis. This state is called “tonic,” and the shark can remain in this state for up to 15 minutes thereby allowing researchers to observe effects of chemical repellents. The “tonic” state of the shark is first established by releasing seawater in proximity to the “tonic” shark with the same delivery instrument and at the same distance as a “test” repellent compound will be released. Some controls are released with a high flow rate (30 mL/sec) in order to establish that sharks are not awakened by a jet of fluid over their noses. Once behavioral controls are established, a compound or composition that may have a repelling effect is delivered to the shark. If the compound or composition engenders a flight response, the shark will awaken from the tonic state and rapidly attempt to flee the delivered repellent. Using this tonic immobility bioassay researches can quantify the strength of a repellent effect.
In Hd-Syringe Assays, the 3-methylbutanal was delivered to the shark's mouth and nares using a 3 mL hypodermic syringe fitted with a 22 gauge needle. […]

[2] = system: juvenile lemon and nurse sharks; assay: Tonic immobility, Micropipette Assay, summary over species; assay type: in vivo
Experimental: as §1
A fourth method of delivery was called the “Micropipette Assay” method of delivery. In this method, a very small dose (fraction of a mL) of a test substance was delivered directly into a shark's mouth. […]

Row | Compound | Syringe assays terminating tonic immobility (text) (lemon sharks) | Hd-Syringe Y (termination of tonic immobility), trials of trials [1] | Micropipette assays with a gustatory response (termination or behavior change) [2] | Micropipette Y (termination of tonic immobility), trials of trials ([2]; oral dose)
1 | COc1ccc(C=O)cc1 [Anisaldehyde, anisaldehyde] | terminated | – | – | –
2 | CC/C=C/C=O [Trans-pentenal, trans-pentenal] | – | In all assays tonic immobility was terminated; also recorded: five of five | six of six | five
